Laboratory results reported in PMC8274477.
These are yes or no findings as the source states them, for the method shown. Some entries that bind do so weakly or less than the wild type.

What was measured:
Test in all cases: peptide or protein array; HuProt human proteome microarray; 5 ug/5 ml biotin-labelled LUBAC or OTULIN in solution, 1 h at room temperature; Cy5-streptavidin, scanned at 635 nm; BSA as negative control; hits: Z-score >= 3 and I_(Mean_Ratio) >= 1.4; both purified
ALKBH2 (human) = target: T1, ALKBH2 (human) (UniProt Q6NS38)
T1 sequence: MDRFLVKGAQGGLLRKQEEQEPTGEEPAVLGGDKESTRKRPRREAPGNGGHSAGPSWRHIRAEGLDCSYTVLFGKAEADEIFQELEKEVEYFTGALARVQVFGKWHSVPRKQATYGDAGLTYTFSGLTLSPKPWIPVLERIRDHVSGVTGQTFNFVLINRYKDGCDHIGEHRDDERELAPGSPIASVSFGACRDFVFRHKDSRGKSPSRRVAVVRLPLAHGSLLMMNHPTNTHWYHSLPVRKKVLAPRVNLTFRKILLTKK

RBM46 (human) = target: T2, RBM46 (human) (UniProt Q8TBY0)
T2 sequence: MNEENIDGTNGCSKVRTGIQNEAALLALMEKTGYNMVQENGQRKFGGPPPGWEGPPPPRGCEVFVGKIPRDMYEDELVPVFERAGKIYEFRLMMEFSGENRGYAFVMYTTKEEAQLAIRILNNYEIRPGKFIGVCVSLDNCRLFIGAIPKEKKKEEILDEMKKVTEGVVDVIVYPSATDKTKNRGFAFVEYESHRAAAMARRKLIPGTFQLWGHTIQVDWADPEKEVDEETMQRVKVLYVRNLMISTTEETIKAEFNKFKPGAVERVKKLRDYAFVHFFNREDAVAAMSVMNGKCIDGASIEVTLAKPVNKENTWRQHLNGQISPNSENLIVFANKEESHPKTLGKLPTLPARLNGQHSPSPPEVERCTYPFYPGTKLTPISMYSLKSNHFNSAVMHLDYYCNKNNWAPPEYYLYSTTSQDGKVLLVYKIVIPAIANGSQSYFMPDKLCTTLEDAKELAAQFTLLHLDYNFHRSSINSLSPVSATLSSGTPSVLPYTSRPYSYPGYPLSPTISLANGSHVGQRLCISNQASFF

SSBP4 (human) = target: T3, SSBP4 (human) (UniProt Q9BWG4)
T3 sequence: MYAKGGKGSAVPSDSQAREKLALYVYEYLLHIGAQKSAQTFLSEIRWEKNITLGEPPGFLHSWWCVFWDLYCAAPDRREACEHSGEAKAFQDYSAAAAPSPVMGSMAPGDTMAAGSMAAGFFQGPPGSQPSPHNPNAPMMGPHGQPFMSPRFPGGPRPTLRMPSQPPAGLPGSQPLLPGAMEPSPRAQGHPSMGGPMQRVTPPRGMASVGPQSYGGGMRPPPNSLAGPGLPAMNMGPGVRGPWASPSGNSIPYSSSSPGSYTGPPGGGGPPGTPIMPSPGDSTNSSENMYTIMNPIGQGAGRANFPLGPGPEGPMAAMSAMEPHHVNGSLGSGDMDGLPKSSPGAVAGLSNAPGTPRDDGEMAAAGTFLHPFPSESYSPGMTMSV

KIF23 (human) = target: T4, KIF23 (human) (UniProt Q02241)
T4 sequence: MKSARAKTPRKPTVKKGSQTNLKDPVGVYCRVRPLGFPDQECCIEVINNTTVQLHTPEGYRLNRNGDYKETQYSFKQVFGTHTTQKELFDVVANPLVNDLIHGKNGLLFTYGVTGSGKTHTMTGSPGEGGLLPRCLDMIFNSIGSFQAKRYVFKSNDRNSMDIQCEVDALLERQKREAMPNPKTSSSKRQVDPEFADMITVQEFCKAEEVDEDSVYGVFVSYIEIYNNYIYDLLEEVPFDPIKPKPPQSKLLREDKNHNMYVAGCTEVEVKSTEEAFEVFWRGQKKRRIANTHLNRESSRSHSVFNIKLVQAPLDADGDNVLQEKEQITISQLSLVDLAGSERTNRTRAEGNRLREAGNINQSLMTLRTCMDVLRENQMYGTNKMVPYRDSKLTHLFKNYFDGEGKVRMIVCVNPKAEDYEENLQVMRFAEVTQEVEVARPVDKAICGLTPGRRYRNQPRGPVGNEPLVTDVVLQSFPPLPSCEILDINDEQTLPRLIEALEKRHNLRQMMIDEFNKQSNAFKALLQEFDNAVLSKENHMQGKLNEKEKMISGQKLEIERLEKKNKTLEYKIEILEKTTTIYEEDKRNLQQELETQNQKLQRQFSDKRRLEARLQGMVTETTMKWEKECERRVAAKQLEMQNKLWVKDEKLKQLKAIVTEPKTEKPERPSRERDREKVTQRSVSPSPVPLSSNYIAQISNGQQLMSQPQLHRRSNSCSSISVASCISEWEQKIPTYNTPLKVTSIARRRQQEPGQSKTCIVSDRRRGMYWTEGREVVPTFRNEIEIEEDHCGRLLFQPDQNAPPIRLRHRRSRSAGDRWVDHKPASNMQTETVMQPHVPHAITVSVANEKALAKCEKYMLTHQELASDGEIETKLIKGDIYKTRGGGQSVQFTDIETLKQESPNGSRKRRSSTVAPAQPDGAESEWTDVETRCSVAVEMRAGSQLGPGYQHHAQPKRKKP

binding (ALKBH2 (human)): binds | binding (RBM46 (human)): binds | binding (SSBP4 (human)): binds | binding (KIF23 (human)): binds
Substance: linear ubiquitin chain assembly complex (LUBAC), purified as HIS-tagged HOIP with the subunit HOIL-1, biotin-labelled (from UniProt Q96EP0 1-1072; Q9BYM8 1-510)
